Reference: the supplement of paper PMC4604168 (melanoma cell lines)
The list shows a part of the results. Single values are uncertain, as repeats are few or missing.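 Cells were imaged in 1,536-well plates, and nuclei stained with an antibody against cleaved PARP were counted against all DNA-stained nuclei to give the apoptosis fraction. Screening doses were chosen to leave most cells alive, and resting and induced cleaved-PARP levels differ strongly between cell lines.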

What was measured:
Experiment in all cases: cleaved PARP positive nuclei fraction relative to DMSO control; melanoma cells; higher = more apoptosis
Details in all cases: library dose: low library concentration; 72 h
[1] = test system: COLO792
[2] = test system: COLO800
[3] = test system: COLO829
[4] = test system: G361
[5] = test system: IPC-298
[6] = test system: IST-MEL1
[7] = test system: LB2518-MEL
[8] = test system: LOXIMVI
[9] = test system: MEL-HO
[10] = test system: MZ2-MEL
[11] = test system: MeWo
[12] = test system: RPMI7951
[13] = test system: RVH-421
[14] = test system: SkMel28
[15] = test system: SkMel2
[16] = test system: SkMel30
[17] = test system: SkMel5
[18] = test system: UACC257
[19] = test system: UACC62
[20] = test system: CBRC034 (line from a melanoma biopsy)

| Compound | cleaved PARP positive nuclei fraction [1] | cleaved PARP positive nuclei fraction [2] | cleaved PARP positive nuclei fraction [3] | cleaved PARP positive nuclei fraction [4] | cleaved PARP positive nuclei fraction [5] | cleaved PARP positive nuclei fraction [6] | cleaved PARP positive nuclei fraction [7] | cleaved PARP positive nuclei fraction [8] | cleaved PARP positive nuclei fraction [9] | cleaved PARP positive nuclei fraction [10] | cleaved PARP positive nuclei fraction [11] | cleaved PARP positive nuclei fraction [12] | cleaved PARP positive nuclei fraction [13] | cleaved PARP positive nuclei fraction [14] | cleaved PARP positive nuclei fraction [15] | cleaved PARP positive nuclei fraction [16] | cleaved PARP positive nuclei fraction [17] | cleaved PARP positive nuclei fraction [18] | cleaved PARP positive nuclei fraction [19] | cleaved PARP positive nuclei fraction [20] |
| --- | --- | --- | --- | --- | --- | --- | --- | --- | --- | --- | --- | --- | --- | --- | --- | --- | --- | --- | --- | --- |
| Cc1cc(N2CCOCC2)cc2[nH]c(-c3c(NC[C@@H](O)c4cccc(Cl)c4)cc[nH]c3=O)nc12 + C[C@@H]1CCN(C(=O)CC#N)C[C@@H]1N(C)c1ncnc2[nH]ccc12 [CP690550] (first compound 0.2 µM, partner dose 1 µM) | 93.9% | 144% | 48.4% | 127% | 91.8% | 142% | 116% | 40.2% | 32.5% | 128% | 50.2% | 126% | 138% | 108% | 36.6% | 71.1% | 128% | 121% | 66.9% | – |
| OCCn1cc(-c2cnc3nnn(Cc4ccc5ncccc5c4)c3n2)cn1 + CN(C)S(=O)(=O)c1ccc2c(c1)/C(=C/c1cc3c([nH]1)CCCC3)C(=O)N2 [SU6656] (first compound 1 µM, partner dose 0.4 µM) | 115% | 48.7% | 61.5% | 106% | 98.6% | 157% | 94.2% | 41.8% | 26.6% | 74.1% | 72.1% | 118% | 90.2% | 61% | 36.9% | 151% | 35.3% | 68.7% | 39.4% | – |
| Cn1c(Nc2ccc(C(F)(F)F)cc2)nc2cc(Oc3ccnc(-c4ncc(C(F)(F)F)[nH]4)c3)ccc21 + Cn1cncc1[C@@](N)(c1ccc(Cl)cc1)c1ccc2c(c1)c(-c1cccc(Cl)c1)cc(=O)n2C [tipifarnib] (first compound 0.08 µM, partner dose 0.01 µM) | 487% | 84.9% | 79.4% | 212% | 120% | 360% | 246% | 139% | 171% | 74.6% | 86% | 689% | 77.3% | 88.3% | 229% | 116% | 172% | 324% | 101% | – |
| CC(C)(C)c1cnc(CSc2cnc(NC(=O)C3CCNCC3)s2)o1 + Cc1cc(N2CCOCC2)cc2[nH]c(-c3c(NC[C@@H](O)c4cccc(Cl)c4)cc[nH]c3=O)nc12 [BMS536924] (first compound 0.01 µM, partner dose 0.2 µM) | 145% | 132% | 89% | 60.4% | 90.8% | 156% | 105% | 44.5% | 149% | 143% | 154% | 103% | 29.3% | 151% | 214% | 161% | 67.7% | 59.6% | 132% | – |
| Cn1nnc2c(C(N)=O)ncn2c1=O [temozolomide] + Oc1nc(-c2ccc(C(F)(F)F)cc2)nc2c1CSCC2 [XAV939] (first compound 2 µM, partner dose 2 µM) | 130% | 85.9% | 83.3% | 168% | 65.6% | 43.1% | – | 148% | – | – | 171% | 95.8% | 114% | 71.2% | – | 430% | 96.9% | 225% | 232% | 167% |
| C=CCNC1=C2C[C@@H](C)C[C@H](OC)[C@H](O)[C@@H](C)/C=C(\C)[C@H](OC(N)=O)[C@@H](OC)/C=C\C=C(/C)C(=O)NC(=CC1=O)C2=O [Tanespimycin] + C[C@@H]1CCN(C(=O)CC#N)C[C@@H]1N(C)c1ncnc2[nH]ccc12 [CP690550] (first compound 0.002 µM, partner dose 1 µM) | 65.5% | 93.8% | 94.8% | 66.9% | 141% | 77.1% | 51.4% | 31.8% | 301% | 92% | 79.1% | 62.6% | 144% | 102% | 93% | 80% | 95.6% | 77.5% | 47.4% | – |
| C#Cc1cccc(Nc2ncnc3cc(OCCOC)c(OCCOC)cc23)c1 [erlotinib] + CC(C)(C)c1cnc(CSc2cnc(NC(=O)C3CCNCC3)s2)o1 [SNS-032] (first compound 0.8 µM, partner dose 0.01 µM) | 147% | 133% | 60.9% | 74.9% | 89.5% | 195% | 230% | 63% | 129% | 94.5% | 98.4% | 70.4% | 23.7% | 26.5% | 81.4% | 143% | 76.4% | 92.3% | 78.1% | – |
| O=C(CCCCCCC(=O)Nc1ccccc1)NO [vorinostat] + NCC(=O)Nc1ccc(-n2nc(C(F)(F)F)cc2-c2ccc3c(ccc4ccccc43)c2)cc1 [OSU03012] (first compound 0.08 µM, partner dose 1 µM) | 187% | 93.8% | 155% | 55% | 108% | 63.9% | 39.2% | 137% | 70.9% | 71.6% | 298% | 91.8% | 83.1% | 64.4% | 326% | 121% | 75.8% | 159% | 189% | – |
| Cn1c(Nc2ccc(C(F)(F)F)cc2)nc2cc(Oc3ccnc(-c4ncc(C(F)(F)F)[nH]4)c3)ccc21 + C[C@@H]1CCN(C(=O)CC#N)C[C@@H]1N(C)c1ncnc2[nH]ccc12 [CP690550] (first compound 0.08 µM, partner dose 1 µM) | 537% | 130% | 249% | 147% | 135% | 153% | 79.8% | 91.3% | 175% | 494% | 183% | 313% | 45.1% | 90.6% | 140% | 109% | 118% | 398% | 140% | – |
| CO[C@@H]1[C@H](N(C)C(=O)c2ccccc2)C[C@H]2O[C@]1(C)n1c3ccccc3c3c4c(c5c6ccccc6n2c5c31)C(=O)NC4 [Midostaurin] + C[C@@H]1CCN(C(=O)CC#N)C[C@@H]1N(C)c1ncnc2[nH]ccc12 [CP690550] (first compound 0.08 µM, partner dose 1 µM) | 219% | 51.3% | 198% | 60.3% | 96.7% | 34.3% | 185% | 55.8% | 88.5% | 124% | 41.6% | 338% | 116% | 74.9% | 234% | 67.9% | 157% | 130% | 240% | – |
| OCCn1cc(-c2cnc3nnn(Cc4ccc5ncccc5c4)c3n2)cn1 + CCN(CC)CCCCNc1ncc2cc(-c3cc(OC)cc(OC)c3)c(NC(=O)NC(C)(C)C)nc2n1 [PD173074] (first compound 1 µM, partner dose 0.1 µM) | 203% | 96.6% | 134% | 99.4% | 41.3% | 85% | – | 69.1% | – | – | 602% | 76.7% | 88.8% | 44.4% | – | 25.8% | 58.8% | 75.4% | 34% | 74.7% |
| O=C(CCCCCCC(=O)Nc1ccccc1)NO [vorinostat] + NC(=O)Nc1cc(-c2cccc(F)c2)sc1C(=O)N[C@H]1CCCNC1 [AZD7762] (first compound 0.08 µM, partner dose 0.02 µM) | 113% | 97.5% | 123% | 76.7% | 91.5% | 93.6% | 51.9% | 43.5% | 131% | 149% | 209% | 133% | 97.8% | 69% | 100% | 67.3% | 63.3% | 53.2% | 370% | – |
| Nc1cccc2c1CN(C1CCC(=O)NC1=O)C2=O (stereo not drawn) [lenalidomide] + CN(NC(=O)CC(=O)NN(C)C(=S)c1ccccc1)C(=S)c1ccccc1 [STA4783] (first compound 1 µM, partner dose 0.006 µM) | 219% | 77.4% | 191% | 177% | 181% | 209% | 138% | 199% | 70.9% | 117% | 55% | 170% | 102% | 71.5% | 14.2% | 112% | 140% | 109% | 122% | – |
| COc1cc(Nc2ncc(F)c(Nc3ccc4c(n3)NC(=O)C(C)(C)O4)n2)cc(OC)c1OC [Tamatinib] + O=C(Nc1cccc(Cl)c1)Nc1ncc(CCNc2ncnc3ccsc23)s1 [SNS314] (first compound 0.4 µM, partner dose 0.0008 µM) | 199% | 50.1% | 133% | 78.5% | 52.8% | 65.2% | 242% | 97.5% | 33.8% | 125% | 81.8% | 30.7% | 108% | 53.7% | 159% | 164% | 90.9% | 209% | 186% | – |
| Cn1c(Nc2ccc(C(F)(F)F)cc2)nc2cc(Oc3ccnc(-c4ncc(C(F)(F)F)[nH]4)c3)ccc21 + CN(C)S(=O)(=O)c1ccc2c(c1)/C(=C/c1cc3c([nH]1)CCCC3)C(=O)N2 [SU6656] (first compound 0.08 µM, partner dose 0.4 µM) | 408% | 95.4% | 116% | 408% | 122% | 94.6% | 201% | 92.6% | 170% | 222% | 198% | 163% | 365% | 116% | 126% | 159% | 103% | 543% | 228% | – |
| O=C(CCCCCCC(=O)Nc1ccccc1)NO [vorinostat] + CN(C)S(=O)(=O)c1ccc2c(c1)/C(=C/c1cc3c([nH]1)CCCC3)C(=O)N2 [SU6656] (first compound 0.08 µM, partner dose 0.4 µM) | 57.8% | 93.4% | 139% | 79.8% | 47.4% | 149% | 52.7% | 16.8% | 133% | 257% | 58.8% | 68.1% | 83.3% | 139% | 68.6% | 246% | 66.6% | 153% | 185% | – |

2 entries from above, with tabs.
Compound	cleaved PARP positive nuclei fraction [1]	cleaved PARP positive nuclei fraction [2]	cleaved PARP positive nuclei fraction [3]	cleaved PARP positive nuclei fraction [4]	cleaved PARP positive nuclei fraction [5]	cleaved PARP positive nuclei fraction [6]	cleaved PARP positive nuclei fraction [7]	cleaved PARP positive nuclei fraction [8]	cleaved PARP positive nuclei fraction [9]	cleaved PARP positive nuclei fraction [10]	cleaved PARP positive nuclei fraction [11]	cleaved PARP positive nuclei fraction [12]	cleaved PARP positive nuclei fraction [13]	cleaved PARP positive nuclei fraction [14]	cleaved PARP positive nuclei fraction [15]	cleaved PARP positive nuclei fraction [16]	cleaved PARP positive nuclei fraction [17]	cleaved PARP positive nuclei fraction [18]	cleaved PARP positive nuclei fraction [19]	cleaved PARP positive nuclei fraction [20]
CC(C)(C)c1cnc(CSc2cnc(NC(=O)C3CCNCC3)s2)o1 + Cc1cc(N2CCOCC2)cc2[nH]c(-c3c(NC[C@@H](O)c4cccc(Cl)c4)cc[nH]c3=O)nc12 [BMS536924] (first compound 0.01 µM, partner dose 0.2 µM)	145%	132%	89%	60.4%	90.8%	156%	105%	44.5%	149%	143%	154%	103%	29.3%	151%	214%	161%	67.7%	59.6%	132%	–
Cn1nnc2c(C(N)=O)ncn2c1=O [temozolomide] + Oc1nc(-c2ccc(C(F)(F)F)cc2)nc2c1CSCC2 [XAV939] (first compound 2 µM, partner dose 2 µM)	130%	85.9%	83.3%	168%	65.6%	43.1%	–	148%	–	–	171%	95.8%	114%	71.2%	–	430%	96.9%	225%	232%	167%
